Columns and labels:
[1] = Drop of liquid applied onto a nipple: adherence, no drip-off within 10 seconds; conditions: one drop applied onto a nipple, direct experimental observation
[2] = Sensory observation of vehicle liquids (taste, mouth-feel); conditions: direct experimental observation

## CC(=O)Oc1c(C)c(C)c2c(c1C)CCC(C)(CCC[C@H](C)CCC[C@H](C)CCCC(C)C)O2 (stereo partly drawn) [Eitamin E acetate oil]
[1]
  Experiment drop behavior on nipple: Adheres
[2]
  mouth-feel: Oily

## CCO [Ethanol]
[1]
  Experiment drop behavior on nipple: drips off
[2]
  mouth-feel: no feel

## O [Water]
[1]
  Experiment drop behavior on nipple: drips off
[2]
  mouth-feel: none
